Laboratory results as given in patent US20050037963A1.
These are yes or no findings as the source states them, for the method shown. Binding seen in cells or lysates may run through a third protein. Some entries that bind do so weakly or less than the wild type.

Sequences of proteins named here, by UniProt entry; tags and fusion partners are left off. A change or cut given only in a name is not applied to a line headed by its entry. A line that says so, or that is headed by a name, gives the form on record, which may keep a tag or linker. Residues count along the entry.
UniProt Q05397, residues 2-1052: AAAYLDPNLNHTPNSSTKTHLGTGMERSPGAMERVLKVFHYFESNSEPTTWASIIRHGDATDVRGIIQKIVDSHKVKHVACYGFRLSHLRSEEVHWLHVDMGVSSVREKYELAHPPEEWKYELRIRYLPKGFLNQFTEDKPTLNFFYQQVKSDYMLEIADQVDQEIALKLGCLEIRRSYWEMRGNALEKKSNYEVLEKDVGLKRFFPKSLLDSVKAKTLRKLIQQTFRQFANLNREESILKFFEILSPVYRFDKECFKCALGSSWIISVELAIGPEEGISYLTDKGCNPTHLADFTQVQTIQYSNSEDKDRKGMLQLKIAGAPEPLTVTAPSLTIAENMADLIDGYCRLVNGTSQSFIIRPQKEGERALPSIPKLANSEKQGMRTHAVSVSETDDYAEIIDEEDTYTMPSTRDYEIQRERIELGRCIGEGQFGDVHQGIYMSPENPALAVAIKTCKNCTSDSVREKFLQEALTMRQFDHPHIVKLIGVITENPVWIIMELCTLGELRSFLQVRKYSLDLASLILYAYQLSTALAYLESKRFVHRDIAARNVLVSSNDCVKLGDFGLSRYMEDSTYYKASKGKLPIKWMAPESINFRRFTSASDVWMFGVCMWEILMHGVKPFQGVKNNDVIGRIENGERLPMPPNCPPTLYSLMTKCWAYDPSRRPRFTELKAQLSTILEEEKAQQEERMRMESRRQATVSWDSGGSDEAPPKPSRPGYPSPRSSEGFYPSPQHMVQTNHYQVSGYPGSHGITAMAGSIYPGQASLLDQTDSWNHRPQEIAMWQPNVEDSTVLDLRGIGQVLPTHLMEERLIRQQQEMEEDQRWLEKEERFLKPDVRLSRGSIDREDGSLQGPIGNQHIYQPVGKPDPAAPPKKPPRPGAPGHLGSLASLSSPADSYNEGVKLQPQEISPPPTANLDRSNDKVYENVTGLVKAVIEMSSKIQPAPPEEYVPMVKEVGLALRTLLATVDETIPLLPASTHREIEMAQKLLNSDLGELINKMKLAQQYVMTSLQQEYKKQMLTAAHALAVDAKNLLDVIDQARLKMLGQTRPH
UniProt P34152, residues 2-1052: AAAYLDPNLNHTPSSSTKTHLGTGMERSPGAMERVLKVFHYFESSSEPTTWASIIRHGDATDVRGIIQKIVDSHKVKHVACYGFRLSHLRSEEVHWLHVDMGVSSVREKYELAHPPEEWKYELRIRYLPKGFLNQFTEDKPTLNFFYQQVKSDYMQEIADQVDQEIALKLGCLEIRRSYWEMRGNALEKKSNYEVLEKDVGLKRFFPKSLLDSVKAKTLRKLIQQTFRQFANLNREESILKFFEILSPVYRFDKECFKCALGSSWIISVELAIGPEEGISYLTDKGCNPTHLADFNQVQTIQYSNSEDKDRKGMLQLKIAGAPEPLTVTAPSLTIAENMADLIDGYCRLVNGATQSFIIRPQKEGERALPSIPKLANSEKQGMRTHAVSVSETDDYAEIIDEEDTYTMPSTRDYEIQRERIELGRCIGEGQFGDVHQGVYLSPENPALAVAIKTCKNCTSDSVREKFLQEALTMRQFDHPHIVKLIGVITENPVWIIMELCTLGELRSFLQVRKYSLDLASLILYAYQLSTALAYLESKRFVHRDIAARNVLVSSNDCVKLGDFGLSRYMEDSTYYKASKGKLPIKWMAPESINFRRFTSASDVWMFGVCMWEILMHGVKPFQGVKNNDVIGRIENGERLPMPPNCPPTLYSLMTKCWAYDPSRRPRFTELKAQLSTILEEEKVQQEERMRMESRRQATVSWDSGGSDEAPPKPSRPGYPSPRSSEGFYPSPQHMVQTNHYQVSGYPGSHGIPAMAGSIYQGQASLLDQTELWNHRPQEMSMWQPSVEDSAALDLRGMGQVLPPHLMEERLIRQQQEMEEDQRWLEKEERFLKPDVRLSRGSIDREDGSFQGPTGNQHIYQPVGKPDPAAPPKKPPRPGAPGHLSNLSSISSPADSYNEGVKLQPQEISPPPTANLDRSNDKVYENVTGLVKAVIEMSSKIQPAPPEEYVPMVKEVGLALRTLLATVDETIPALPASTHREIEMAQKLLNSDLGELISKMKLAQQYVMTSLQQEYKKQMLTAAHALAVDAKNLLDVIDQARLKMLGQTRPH
UniProt O35346, residues 2-1055: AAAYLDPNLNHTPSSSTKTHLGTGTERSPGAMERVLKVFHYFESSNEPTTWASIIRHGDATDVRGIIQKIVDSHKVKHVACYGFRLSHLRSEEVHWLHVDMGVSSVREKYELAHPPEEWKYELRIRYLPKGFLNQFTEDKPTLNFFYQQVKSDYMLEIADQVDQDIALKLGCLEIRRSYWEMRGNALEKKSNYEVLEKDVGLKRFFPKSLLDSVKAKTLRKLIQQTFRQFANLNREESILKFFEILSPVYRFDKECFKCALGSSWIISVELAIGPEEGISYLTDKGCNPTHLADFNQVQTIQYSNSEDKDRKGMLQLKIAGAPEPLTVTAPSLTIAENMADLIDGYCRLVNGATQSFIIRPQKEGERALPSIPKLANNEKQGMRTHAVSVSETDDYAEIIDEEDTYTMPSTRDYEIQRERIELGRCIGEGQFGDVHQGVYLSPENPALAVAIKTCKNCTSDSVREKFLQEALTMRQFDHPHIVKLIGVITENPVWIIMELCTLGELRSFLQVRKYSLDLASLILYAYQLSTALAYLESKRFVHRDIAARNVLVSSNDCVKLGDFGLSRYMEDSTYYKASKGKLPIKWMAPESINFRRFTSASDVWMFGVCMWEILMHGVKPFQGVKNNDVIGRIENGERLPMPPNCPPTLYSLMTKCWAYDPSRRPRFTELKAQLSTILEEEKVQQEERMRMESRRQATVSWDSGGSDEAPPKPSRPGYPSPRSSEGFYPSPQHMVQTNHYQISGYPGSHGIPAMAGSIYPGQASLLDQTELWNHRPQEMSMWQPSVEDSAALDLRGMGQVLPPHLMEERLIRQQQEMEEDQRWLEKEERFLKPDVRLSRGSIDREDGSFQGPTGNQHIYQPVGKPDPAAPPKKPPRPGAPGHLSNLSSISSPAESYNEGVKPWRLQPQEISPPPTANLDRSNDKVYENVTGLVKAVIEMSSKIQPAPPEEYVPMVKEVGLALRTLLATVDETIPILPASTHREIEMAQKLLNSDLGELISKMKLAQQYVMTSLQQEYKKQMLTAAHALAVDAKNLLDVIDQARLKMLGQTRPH
UniProt Q8TDY2: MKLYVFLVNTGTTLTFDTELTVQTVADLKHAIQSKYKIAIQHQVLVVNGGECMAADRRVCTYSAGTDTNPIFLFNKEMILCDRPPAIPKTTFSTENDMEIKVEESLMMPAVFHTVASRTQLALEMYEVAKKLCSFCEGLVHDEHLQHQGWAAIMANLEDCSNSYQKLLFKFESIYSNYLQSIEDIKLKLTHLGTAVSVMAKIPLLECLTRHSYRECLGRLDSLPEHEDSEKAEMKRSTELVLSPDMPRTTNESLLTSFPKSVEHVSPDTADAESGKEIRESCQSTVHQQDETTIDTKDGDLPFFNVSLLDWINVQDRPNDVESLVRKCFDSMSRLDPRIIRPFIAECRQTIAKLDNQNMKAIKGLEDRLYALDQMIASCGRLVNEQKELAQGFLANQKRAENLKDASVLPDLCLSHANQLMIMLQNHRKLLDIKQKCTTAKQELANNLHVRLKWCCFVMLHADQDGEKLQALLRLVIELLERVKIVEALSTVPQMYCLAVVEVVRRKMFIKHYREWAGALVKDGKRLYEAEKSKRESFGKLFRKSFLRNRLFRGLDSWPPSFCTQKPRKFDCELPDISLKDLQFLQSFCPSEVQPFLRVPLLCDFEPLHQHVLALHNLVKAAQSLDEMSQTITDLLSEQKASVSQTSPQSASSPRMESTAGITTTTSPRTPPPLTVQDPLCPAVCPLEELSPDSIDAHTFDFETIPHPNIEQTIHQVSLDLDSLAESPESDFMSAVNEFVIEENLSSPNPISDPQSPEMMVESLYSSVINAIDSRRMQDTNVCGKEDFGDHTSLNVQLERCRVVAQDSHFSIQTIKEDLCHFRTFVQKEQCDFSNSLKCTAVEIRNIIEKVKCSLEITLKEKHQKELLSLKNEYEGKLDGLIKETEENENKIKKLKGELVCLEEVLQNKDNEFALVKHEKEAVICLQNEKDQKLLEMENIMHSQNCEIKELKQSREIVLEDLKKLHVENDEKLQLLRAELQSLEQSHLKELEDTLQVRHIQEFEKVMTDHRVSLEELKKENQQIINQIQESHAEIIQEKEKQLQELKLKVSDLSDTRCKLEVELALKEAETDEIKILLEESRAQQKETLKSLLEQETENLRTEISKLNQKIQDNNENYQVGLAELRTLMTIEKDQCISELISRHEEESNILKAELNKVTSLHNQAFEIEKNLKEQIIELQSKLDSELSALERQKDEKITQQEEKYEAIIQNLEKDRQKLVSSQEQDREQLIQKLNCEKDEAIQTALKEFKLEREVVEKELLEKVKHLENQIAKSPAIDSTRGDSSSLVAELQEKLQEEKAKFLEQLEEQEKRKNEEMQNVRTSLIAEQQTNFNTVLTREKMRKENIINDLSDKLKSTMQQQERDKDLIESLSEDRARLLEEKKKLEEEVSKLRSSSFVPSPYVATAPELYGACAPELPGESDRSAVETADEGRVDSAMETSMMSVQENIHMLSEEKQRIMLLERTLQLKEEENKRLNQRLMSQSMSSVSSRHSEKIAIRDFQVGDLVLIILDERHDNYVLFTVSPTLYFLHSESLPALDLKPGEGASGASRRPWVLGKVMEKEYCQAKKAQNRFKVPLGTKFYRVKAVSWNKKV
endogenous FIP200 of rat aortic smooth muscle cells (D3ZHK4, form named): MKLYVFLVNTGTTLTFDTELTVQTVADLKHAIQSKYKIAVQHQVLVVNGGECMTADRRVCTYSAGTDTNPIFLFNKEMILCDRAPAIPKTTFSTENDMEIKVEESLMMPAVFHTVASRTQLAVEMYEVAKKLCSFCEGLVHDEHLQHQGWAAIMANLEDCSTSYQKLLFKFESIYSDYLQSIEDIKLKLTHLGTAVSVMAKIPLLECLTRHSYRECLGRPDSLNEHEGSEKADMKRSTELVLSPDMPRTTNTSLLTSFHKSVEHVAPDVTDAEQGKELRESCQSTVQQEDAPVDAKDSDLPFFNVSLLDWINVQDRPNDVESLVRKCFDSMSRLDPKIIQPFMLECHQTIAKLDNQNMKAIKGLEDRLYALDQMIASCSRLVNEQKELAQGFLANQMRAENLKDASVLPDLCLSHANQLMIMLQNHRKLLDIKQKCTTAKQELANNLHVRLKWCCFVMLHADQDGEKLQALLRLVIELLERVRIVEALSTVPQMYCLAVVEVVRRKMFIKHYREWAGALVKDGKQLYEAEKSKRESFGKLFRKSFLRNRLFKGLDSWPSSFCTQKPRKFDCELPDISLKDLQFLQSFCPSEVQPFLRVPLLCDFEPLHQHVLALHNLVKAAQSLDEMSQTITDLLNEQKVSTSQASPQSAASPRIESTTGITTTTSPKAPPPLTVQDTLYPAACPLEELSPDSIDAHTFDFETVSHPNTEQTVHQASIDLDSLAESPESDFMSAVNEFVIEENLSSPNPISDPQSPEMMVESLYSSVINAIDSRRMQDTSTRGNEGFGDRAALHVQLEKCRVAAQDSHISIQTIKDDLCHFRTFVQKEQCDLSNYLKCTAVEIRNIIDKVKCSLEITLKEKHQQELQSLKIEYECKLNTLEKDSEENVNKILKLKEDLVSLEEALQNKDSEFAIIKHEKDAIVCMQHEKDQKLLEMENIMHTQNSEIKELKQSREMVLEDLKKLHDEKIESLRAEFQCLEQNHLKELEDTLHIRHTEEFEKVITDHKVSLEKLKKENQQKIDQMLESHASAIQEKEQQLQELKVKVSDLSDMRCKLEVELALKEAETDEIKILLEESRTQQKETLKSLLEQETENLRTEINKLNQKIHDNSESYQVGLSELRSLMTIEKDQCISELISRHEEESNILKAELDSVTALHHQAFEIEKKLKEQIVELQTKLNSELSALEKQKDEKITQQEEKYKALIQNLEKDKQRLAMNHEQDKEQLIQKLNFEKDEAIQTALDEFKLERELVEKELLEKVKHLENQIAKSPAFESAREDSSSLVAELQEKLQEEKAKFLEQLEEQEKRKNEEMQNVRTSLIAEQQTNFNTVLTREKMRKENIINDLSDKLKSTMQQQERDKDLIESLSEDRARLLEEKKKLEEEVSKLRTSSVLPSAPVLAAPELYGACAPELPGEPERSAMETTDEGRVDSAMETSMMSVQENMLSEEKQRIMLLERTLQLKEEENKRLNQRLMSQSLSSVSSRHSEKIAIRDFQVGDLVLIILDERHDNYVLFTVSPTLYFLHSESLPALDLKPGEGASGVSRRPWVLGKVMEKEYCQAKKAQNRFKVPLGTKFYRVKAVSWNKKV

Tests used:
[1] = target: endogenous focal adhesion kinase (FAK) of human cells (human) (UniProt Q05397); assay: co-immunoprecipitation of endogenous proteins, 293 cells
[2] = target: endogenous focal adhesion kinase (FAK) of human cells (human) (UniProt Q05397); assay: co-immunoprecipitation (anti-FIP200N IP, anti-FAK blot), MDA-MB231 cell lysates
[3] = target: endogenous focal adhesion kinase (FAK) of human cells (human) (UniProt Q05397); assay: co-immunoprecipitation of endogenous proteins (anti-FIP200N IP, anti-FAK blot), MDA-MB231 cell lysates
[4] = target: endogenous FAK of NIH 3T3 cells (mouse) (UniProt P34152); assay: co-immunoprecipitation of endogenous proteins, NIH 3T3 cells
[5] = target: endogenous FAK of rat aortic smooth muscle cells (rat) (UniProt O35346); assay: co-immunoprecipitation of endogenous proteins, rat aortic smooth muscle cells

**Q.** Which results are given for “endogenous FIP200 (FAK family kinase-interacting protein of 200 kDa) of human cells (from UniProt Q8TDY2 1-1594)”?
**A.** binding [1]: binds; binding [2]: binds; binding [3]: binds

**Q.** “endogenous FIP200 of NIH 3T3 cells (from UniProt Q9ESK9 1-1588)” was tested. Which binding [4] did it give?
**A.** The binding was “binds”.

**Q.** With “endogenous FIP200 of rat aortic smooth muscle cells (from UniProt D3ZHK4 1-1588)” as the substance, how does the binding [5] read?
**A.** Its binding is “binds”.
